This is an account of results in article PMC7448276.

Protein sequences, listed by entry. Tags and fused reporters are not part of them. Lines headed by an entry give the natural chain unless they say otherwise; changes in a name come on top.
UniProt O05574: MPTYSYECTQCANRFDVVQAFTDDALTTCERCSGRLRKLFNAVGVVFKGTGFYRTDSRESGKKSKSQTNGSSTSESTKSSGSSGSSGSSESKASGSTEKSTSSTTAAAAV
UniProt P9WMJ9: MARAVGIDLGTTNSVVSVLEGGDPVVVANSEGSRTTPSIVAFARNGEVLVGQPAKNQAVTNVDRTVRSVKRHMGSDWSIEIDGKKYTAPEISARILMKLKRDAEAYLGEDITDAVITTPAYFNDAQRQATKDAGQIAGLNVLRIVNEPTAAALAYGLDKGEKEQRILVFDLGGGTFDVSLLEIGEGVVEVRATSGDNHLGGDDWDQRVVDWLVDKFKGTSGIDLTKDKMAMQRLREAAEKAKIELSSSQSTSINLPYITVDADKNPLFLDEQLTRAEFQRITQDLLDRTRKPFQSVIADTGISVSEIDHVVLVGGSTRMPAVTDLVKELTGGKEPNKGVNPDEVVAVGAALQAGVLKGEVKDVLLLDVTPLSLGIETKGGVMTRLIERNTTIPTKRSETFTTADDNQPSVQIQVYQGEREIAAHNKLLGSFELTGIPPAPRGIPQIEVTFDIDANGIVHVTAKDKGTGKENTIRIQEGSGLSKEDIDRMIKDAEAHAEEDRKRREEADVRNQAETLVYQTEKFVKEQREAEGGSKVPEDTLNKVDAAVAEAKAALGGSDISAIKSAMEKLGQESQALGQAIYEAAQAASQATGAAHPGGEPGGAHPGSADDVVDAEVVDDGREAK

No constants are given. Whether binding was seen depends on the method and setting. In cells and extracts the contact can be indirect. A yes stands for co-enrichment or nearness to the bait. Other partners may have been found.

The assay has as its target Ruc with a C-terminal hexahistidine-FLAG tandem affinity purification tag (RucTAP) (M. tuberculosis) (UniProt O05574). The experiment in a line: affinity purification with mass spectrometry.

As to “M. tuberculosis DnaK (from UniProt P9WMJ9 1-625)”, the binding entry was “binds”.
